This note sets out measurements from publication PMC6876712, “MglA functions as a three-state GTPase to control movement reversals of Myxococcus xanthus” (Nature Communications, 2019).

The target in test [1] is T1, MglA (Myxococcus xanthus small GTPase), C-terminal 6xHis (M. xanthus) (UniProt Q1DB04).
T1 sequence: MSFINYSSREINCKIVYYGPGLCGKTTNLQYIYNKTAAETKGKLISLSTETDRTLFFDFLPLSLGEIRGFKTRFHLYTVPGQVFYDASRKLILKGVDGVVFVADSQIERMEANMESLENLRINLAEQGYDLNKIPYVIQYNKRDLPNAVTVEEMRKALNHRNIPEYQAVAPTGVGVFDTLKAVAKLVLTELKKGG
Briefly: crystal structure; MglA-GTPγS/MglB complex; equimolar MglA and MglB with 20x GTPγS, purified by SEC; crystals in 0.2 M HEPES pH 7, 16% PEG 4000; 2.8 Å; both purified.

Test [2] has as its target T2, MglB (MglB-2 construct, 6xHis tag cleaved by TEV protease) (M. xanthus), Q1DB03.
T2 chain: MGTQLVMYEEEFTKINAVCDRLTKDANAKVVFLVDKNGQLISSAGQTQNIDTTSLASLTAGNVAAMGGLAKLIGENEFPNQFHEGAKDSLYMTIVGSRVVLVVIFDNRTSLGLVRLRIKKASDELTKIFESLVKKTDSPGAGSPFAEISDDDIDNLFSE
Briefly: SEC-SAXS; MglB 15 mg/mL (600 µg in 40 µL) injected; 20 mM Tris pH 8.0, 150 mM NaCl, 1 mM DTT; both purified. The settings on record: remark: other sources report otherwise.

Results are given in words; binding and its absence hold for the method and conditions named. Some binding calls cover weakened binding; strength is not graded here. Tags and fused reporters may be left off the sequences shown.

B1: MglB (MglB-2 construct, 6xHis tag cleaved by TEV protease) (protein, UniProt Q1DB03 1-159)
chain: MGTQLVMYEEEFTKINAVCDRLTKDANAKVVFLVDKNGQLISSAGQTQNIDTTSLASLTAGNVAAMGGLAKLIGENEFPNQFHEGAKDSLYMTIVGSRVVLVVIFDNRTSLGLVRLRIKKASDELTKIFESLVKKTDSPGAGSPFAEISDDDIDNLFSE
B1: in test [1], the binding entry is “binds”.

B2: MglB (MglB-2 construct, 6xHis tag cleaved by TEV protease), Q1DB03 1-159 (natural protein)
chain: MGTQLVMYEEEFTKINAVCDRLTKDANAKVVFLVDKNGQLISSAGQTQNIDTTSLASLTAGNVAAMGGLAKLIGENEFPNQFHEGAKDSLYMTIVGSRVVLVVIFDNRTSLGLVRLRIKKASDELTKIFESLVKKTDSPGAGSPFAEISDDDIDNLFSE
Regarding B2, the binding entry in test [2] is reported as “binds”.
